Primary screen of a compound library

The chains behind the UniProt entries cited, without tags or fusion partners. Residues count along the entry.
UniProt P9WNZ1, whole entry: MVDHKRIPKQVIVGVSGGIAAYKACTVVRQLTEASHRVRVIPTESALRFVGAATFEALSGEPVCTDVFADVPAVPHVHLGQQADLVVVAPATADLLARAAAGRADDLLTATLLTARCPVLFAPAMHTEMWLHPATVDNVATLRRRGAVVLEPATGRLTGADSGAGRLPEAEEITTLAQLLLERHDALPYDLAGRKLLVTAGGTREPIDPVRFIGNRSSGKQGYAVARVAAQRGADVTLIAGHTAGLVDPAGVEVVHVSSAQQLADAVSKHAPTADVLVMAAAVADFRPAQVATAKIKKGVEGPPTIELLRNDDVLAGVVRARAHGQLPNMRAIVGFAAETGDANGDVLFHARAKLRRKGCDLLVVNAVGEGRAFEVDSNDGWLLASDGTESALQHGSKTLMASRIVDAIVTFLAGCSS
UniProt P9WFT3, whole entry: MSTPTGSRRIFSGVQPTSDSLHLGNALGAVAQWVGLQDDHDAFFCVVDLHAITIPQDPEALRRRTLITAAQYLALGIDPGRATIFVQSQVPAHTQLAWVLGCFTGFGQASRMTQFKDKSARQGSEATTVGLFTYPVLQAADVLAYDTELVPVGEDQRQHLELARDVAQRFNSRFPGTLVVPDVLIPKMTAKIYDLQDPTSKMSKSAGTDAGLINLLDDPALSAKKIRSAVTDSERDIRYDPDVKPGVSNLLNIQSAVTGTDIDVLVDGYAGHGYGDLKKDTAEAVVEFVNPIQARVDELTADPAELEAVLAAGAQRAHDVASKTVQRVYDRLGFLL
UniProt A4I591, 1-473: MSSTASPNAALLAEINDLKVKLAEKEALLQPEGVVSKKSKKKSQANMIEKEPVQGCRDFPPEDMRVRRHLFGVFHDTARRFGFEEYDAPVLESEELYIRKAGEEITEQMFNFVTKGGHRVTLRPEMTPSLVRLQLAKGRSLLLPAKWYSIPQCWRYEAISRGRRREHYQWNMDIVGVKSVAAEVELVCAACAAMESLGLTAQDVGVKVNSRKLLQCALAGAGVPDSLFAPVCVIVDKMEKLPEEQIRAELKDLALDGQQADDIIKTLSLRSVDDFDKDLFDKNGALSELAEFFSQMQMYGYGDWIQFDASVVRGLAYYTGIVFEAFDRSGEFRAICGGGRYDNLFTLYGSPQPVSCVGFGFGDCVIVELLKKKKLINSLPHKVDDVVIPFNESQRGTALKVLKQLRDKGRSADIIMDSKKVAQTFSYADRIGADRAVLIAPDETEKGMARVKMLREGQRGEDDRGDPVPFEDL

CoaBC: 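Coenzyme A biosynthesis protein CoaBC, Mycobacterium tuberculosis (UniProt P9WNZ1). Enzyme assay of CoaBC with a phosphate dye (Biomol Green) read at 650 nm. Compounds at 30 µM. Direction is inferred from only a few compounds that gave an IC50; most scored high, so higher reads as stronger inhibition. Most strong results did not repeat in a second test. Of about 67,000 compounds tested this way, about 40 (0.06%) reached 50% or more in at least one test.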
Toxoplasma: 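Assay of Toxoplasma gondii numbers, read through their beta-galactosidase reporter with a colour substrate. Concentration: 10 µM. The record gives no direction; the compounds picked for IC50 retests had high values, so higher reads as fewer parasites. Of about 67,000 compounds tested this way, about 260 (0.38%) reached 50% or more in at least one test.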
Leishmania in macrophages: 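Cell assay of Leishmania donovani living inside macrophages; the read-out is not stated. Concentration: 30 µM. Direction is inferred from retests: higher values go with stronger inhibition. Of about 69,000 compounds tested this way, about 1,000 (1.5%) reached 50% or more in at least one test.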
MtTrpRS: 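Enzyme assay of tryptophanyl-tRNA synthetase; the read-out is not stated. Target: Tryptophan-tRNA ligase, Mycobacterium tuberculosis (UniProt P9WFT3). Concentration: 10 µM. Direction is not recorded; retested compounds ran higher, which suggests that high means inhibition. Size under these conditions: about 65,000 compounds, about 64 of them at 50% or above in at least one test.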
LiHisRS: 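Histidine-tRNA ligase, Leishmania infantum (UniProt A4I591). Enzyme assay of histidyl-tRNA synthetase; the read-out is not stated. Compounds at 30 µM. Higher reads as stronger inhibition (inferred: compounds with an IC50 in retests scored well above the rest). The assay is labelled LdHisRS but filed under L. infantum. About 69,000 compounds were tested under these conditions; 0.6% (about 410) showed 50% or more at least once.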

Each number is a percent effect as filed. The record does not define 0% and 100%; most values in the screen are far below 50% and negative numbers occur (in some assays of this library far below -100). This is an unselected part of the compounds tested. A dash means the value is not listed here; it may have been measured.

{"structure": "O=C1NC2(CCN(Cc3ccc(F)cc3)CC2)CC1c1ccncc1", "stereo": "centres undefined", "CoaBC": 1.261, "MtTrpRS": -2.441, "LiHisRS": 12.73}
{"structure": "CC(O)CN1CCN(C(=O)c2cn(-c3ccccc3Cl)nn2)CC1", "stereo": "centres undefined", "CoaBC": 4.846, "Toxoplasma": 0.2658, "Leishmania in macrophages": -18.84, "MtTrpRS": 1.844, "LiHisRS": 20.75}
{"structure": "CCc1nn(C)c(CC)c1CNC(=O)Nc1cccc([S+](C)[O-])c1", "stereo": "centres undefined", "CoaBC": -5.645, "Toxoplasma": -3.481, "Leishmania in macrophages": 2.126, "MtTrpRS": -2.058, "LiHisRS": -3.509}
{"structure": "c1ccc2c(c1)COC1(CCCCC1)N2", "CoaBC": -0.7264, "Toxoplasma": 0.4449, "Leishmania in macrophages": 39.3, "MtTrpRS": -1.328, "LiHisRS": 19.57}
{"structure": "CCn1cc(CN2C[C@H]3CC[C@@H]2CN(C(=O)c2cnccn2)C3)cn1", "CoaBC": -3.623, "MtTrpRS": -4.545, "LiHisRS": 21.21}
{"structure": "COCC(=O)N1C[C@@H](OCc2ccncc2)[C@@H]2OCCC[C@@H]21", "CoaBC": 0.7519, "MtTrpRS": 1.383, "LiHisRS": 12.82}
{"structure": "[H][C@@]12CCCC[C@]1(O)CCN(C(=O)c1cccc3c1ccn3C)C2", "Toxoplasma": 4.427, "Leishmania in macrophages": 12.58}
{"structure": "Cc1cc(C)c(CNC(=O)NCC(O)c2cccc(F)c2)c(=O)[nH]1", "stereo": "centres undefined", "CoaBC": 7.513, "Toxoplasma": 1.193, "Leishmania in macrophages": 6.3, "MtTrpRS": -3.996, "LiHisRS": 16.67}
{"structure": "N#CCCNC(=O)CN1CCC(c2cc3ccccc3[nH]2)CC1", "CoaBC": 3.19, "Toxoplasma": 2.37, "Leishmania in macrophages": 5.414, "MtTrpRS": 4.951, "LiHisRS": 6.667}
{"structure": "Cc1c[nH]nc1C1CCN(S(=O)(=O)N(C)C)CC1", "CoaBC": -1.944, "Toxoplasma": 0.3203, "Leishmania in macrophages": 10.06, "MtTrpRS": -7.107, "LiHisRS": 16.67}
{"structure": "O=C(O)C(F)(F)F.O=C(O)C(F)(F)F.[H][C@@]12CCCO[C@]1([H])[C@H](OCc1ccncc1)CN2Cc1ccccc1F", "Toxoplasma": -6.193, "Leishmania in macrophages": 54.27}
{"structure": "CC(C)c1noc(CN(C)C(=O)c2ccccc2-c2nc[nH]n2)n1", "CoaBC": 5.4, "Toxoplasma": 7.663, "Leishmania in macrophages": 4.548, "MtTrpRS": 3.359, "LiHisRS": 20}
{"structure": "O=C(CN1CCOC(Cn2cccn2)C1)NCCc1ccc(F)cc1", "stereo": "centres undefined", "CoaBC": 6.408, "Toxoplasma": -1.077, "Leishmania in macrophages": 1.853, "MtTrpRS": -0.8746, "LiHisRS": 0}
{"structure": "Cc1cccc(CN2CCC[C@@H]3CN(C(=O)c4ccco4)C[C@@H]32)n1", "CoaBC": 1.261, "MtTrpRS": 0.1744, "LiHisRS": 3.636}
{"structure": "CC(Cn1cccn1)NC(=O)N1CCN(Cc2cccnc2)CC1", "stereo": "centres undefined", "CoaBC": 1.318, "Toxoplasma": -0.8899, "Leishmania in macrophages": 3.597, "MtTrpRS": 2.421, "LiHisRS": 25}
{"structure": "CN(Cc1noc(C2CC2)n1)C1CCN(Cc2nnc(C3CC3)o2)C1", "stereo": "centres undefined", "CoaBC": -0.7905, "Toxoplasma": -0.6674, "Leishmania in macrophages": -4.238, "MtTrpRS": -3.448, "LiHisRS": 12.5}
{"structure": "CCc1cnc(N2CC[C@H]3[C@@H]2CCC(=O)N3c2ccccc2)nc1", "CoaBC": 0.7426, "LiHisRS": 18.92}
{"structure": "Cc1cccc(-c2cccc(CC3(C(=O)O)CCOCC3)c2)c1", "CoaBC": 1.225, "Toxoplasma": -28.46, "Leishmania in macrophages": -50.98, "LiHisRS": 7.292}
{"structure": "Cc1ccc(NC(=O)C(C)n2ccc(C(F)(F)F)n2)nc1", "stereo": "centres undefined", "CoaBC": 4.937, "Toxoplasma": -1.638, "Leishmania in macrophages": 38.05, "MtTrpRS": 4.068, "LiHisRS": 22.5}
{"structure": "Cc1nc(CN[C@H]2CCCN(C(=O)OC(C)(C)C)C2)cs1", "CoaBC": -3.606, "Toxoplasma": -5.369, "Leishmania in macrophages": 11.44, "MtTrpRS": 3.539, "LiHisRS": 0}
{"structure": "COc1c(CNCc2ccnc(N(C)C)c2)c(C(C)C)nn1C", "CoaBC": 6.464, "Toxoplasma": 3.552, "Leishmania in macrophages": 40.27, "MtTrpRS": -3.955, "LiHisRS": 16.07}
{"structure": "Cc1ccn(-c2cccc(C(=O)N3CCCC(n4ccnc4C)C3)c2)n1", "stereo": "centres undefined", "CoaBC": 1.845, "Toxoplasma": -34.93, "Leishmania in macrophages": 7.479, "MtTrpRS": 2.421, "LiHisRS": 6.25}

Repeated from the top, 2 entries:

structure,CoaBC,Toxoplasma,Leishmania in macrophages,MtTrpRS,LiHisRS
O=C1NC2(CCN(Cc3ccc(F)cc3)CC2)CC1c1ccncc1 (centres undefined),1.261,-,-,-2.441,12.73
CC(O)CN1CCN(C(=O)c2cn(-c3ccccc3Cl)nn2)CC1 (centres undefined),4.846,0.2658,-18.84,1.844,20.75

Data taken from ChEMBL document CHEMBL3988442, “University of Dundee, Small-Polar-MMV Screening Library” (2021).